# Reference: article PMC6949046
# These are yes or no findings as the source states them, for the method shown. Binding seen in cells or lysates may run through a third protein. Some binding calls cover weakened binding; strength is not graded here.
# T1: Sirtuin1 (Sirt1) (mouse (endogenous in mouse heart and isolated P1 mouse cardiomyocytes)) (UniProt Q923E4)
# T1 sequence: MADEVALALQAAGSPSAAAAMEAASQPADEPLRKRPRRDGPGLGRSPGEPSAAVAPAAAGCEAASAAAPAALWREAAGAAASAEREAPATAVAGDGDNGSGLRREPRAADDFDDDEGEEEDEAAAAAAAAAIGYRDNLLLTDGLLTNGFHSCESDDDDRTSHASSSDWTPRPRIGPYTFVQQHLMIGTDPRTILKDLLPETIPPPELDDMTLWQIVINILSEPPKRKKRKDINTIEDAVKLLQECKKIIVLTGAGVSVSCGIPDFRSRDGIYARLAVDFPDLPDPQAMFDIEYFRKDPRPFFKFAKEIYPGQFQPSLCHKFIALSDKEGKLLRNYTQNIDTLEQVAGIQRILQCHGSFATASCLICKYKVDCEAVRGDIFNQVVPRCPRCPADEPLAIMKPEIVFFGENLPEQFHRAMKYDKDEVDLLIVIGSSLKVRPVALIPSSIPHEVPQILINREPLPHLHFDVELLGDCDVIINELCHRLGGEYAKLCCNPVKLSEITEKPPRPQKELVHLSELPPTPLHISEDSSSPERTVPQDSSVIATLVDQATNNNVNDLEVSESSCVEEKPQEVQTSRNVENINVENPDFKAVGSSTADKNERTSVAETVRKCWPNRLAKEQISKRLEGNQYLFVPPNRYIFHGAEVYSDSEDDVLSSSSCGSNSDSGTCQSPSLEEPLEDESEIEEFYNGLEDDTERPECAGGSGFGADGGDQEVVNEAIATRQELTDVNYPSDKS
# B1: p21 (encoded by cyclin-dependent kinase inhibitor 1A) (protein, UniProt P39689 1-159)
# chain: MSNPGDVRPVPHRSKVCRCLFGPVDSEQLRRDCDALMAGCLQEARERWNFDFVTETPLEGNFVWERVRSLGLPKVYLSPGSRSRDDLGGDKRPSTSSALLQGPAPEDHVALSLSCTLVSERPEDSPGGPGTSQGRKRRQTSLTDFYHSKRRLVFCKRKP
# Biological target: T1, Sirtuin1 (Sirt1) (mouse (endogenous in mouse heart and isolated P1 mouse cardiomyocytes))
# Experiment: co-IP; lysates of isolated P1 mouse cardiomyocytes; immunoprecipitated with Sirt1 antibody and blotted with p21 antibody, and vice versa; IgG as negative control; protein A/G-agarose beads at 4°C for 12 h
binder,measurement,value
B1,binding,binds
